# Test results reported in doi:10.1101/2021.03.08.433705.
# Results are given in words; binding and its absence hold for the method and conditions named. Binding seen in cells or lysates may run through a third protein. Binding calls can cover weak binding; strength is not graded here.
# T1: KDM2B (endogenous) (human (endogenous in K562, MOLM14)) (UniProt Q8NHM5)
# T1 sequence: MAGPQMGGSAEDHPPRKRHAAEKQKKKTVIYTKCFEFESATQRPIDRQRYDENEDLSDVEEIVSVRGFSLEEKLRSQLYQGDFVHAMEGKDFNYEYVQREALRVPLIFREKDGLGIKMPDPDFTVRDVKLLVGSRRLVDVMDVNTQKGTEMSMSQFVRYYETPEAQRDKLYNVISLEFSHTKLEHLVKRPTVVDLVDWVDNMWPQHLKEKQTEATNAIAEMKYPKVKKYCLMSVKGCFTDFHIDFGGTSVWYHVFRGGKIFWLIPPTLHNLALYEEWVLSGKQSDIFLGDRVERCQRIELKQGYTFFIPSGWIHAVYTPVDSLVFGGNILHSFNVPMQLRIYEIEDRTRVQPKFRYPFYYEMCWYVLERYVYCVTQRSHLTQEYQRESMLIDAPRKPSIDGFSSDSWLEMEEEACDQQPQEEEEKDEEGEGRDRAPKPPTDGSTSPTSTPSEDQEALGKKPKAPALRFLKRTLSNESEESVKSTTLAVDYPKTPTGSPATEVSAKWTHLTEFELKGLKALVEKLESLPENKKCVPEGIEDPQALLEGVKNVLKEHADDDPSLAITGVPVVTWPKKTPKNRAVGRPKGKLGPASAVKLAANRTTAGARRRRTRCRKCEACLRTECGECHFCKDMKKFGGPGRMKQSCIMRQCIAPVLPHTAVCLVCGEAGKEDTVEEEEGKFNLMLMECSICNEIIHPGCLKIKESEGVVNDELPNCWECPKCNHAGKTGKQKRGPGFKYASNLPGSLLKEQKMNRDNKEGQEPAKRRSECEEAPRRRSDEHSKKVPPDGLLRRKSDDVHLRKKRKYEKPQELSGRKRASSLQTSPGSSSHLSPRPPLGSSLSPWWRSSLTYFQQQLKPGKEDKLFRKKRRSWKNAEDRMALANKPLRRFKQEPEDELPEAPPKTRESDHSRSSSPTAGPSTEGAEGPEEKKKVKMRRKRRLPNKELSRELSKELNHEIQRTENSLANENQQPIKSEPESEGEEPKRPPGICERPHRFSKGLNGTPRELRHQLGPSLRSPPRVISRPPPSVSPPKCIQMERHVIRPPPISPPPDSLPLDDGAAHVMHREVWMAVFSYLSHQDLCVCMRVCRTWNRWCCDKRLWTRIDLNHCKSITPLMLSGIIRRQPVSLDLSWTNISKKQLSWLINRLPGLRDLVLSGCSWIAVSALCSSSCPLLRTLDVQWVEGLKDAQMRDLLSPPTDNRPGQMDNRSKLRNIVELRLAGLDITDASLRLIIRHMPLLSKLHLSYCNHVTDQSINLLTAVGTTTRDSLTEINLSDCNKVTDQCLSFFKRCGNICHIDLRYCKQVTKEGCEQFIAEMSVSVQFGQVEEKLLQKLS
# How the values were obtained:
# Experiment in all cases: co-IP
# [1] = biological target: T1, KDM2B (endogenous) (human (endogenous in K562, MOLM14))
# [2] = biological target: BCOR^PUFD-Tr (C-terminally truncated endogenous BCOR, MOLM14 bulk population) (human (endogenous in MOLM14))
# [3] = biological target: BCOR^PUFD-Tr (C-terminally truncated endogenous BCOR, K562) (human (endogenous in K562))
# [4] = biological target: BCORL1 (endogenous, K562) (human (endogenous in K562))
Molecule,binding [1],binding [2],binding [3],binding [4]
"BCOR^PUFD-Tr (C-terminally truncated endogenous BCOR, K562) (human (endogenous in K562)) (domain or fragment)",binds,,,
"KDM2B (endogenous) (protein, UniProt Q8NHM5 1-1336) MAGPQMGGSAEDHPPRKRHAAEKQKKKTVIYTKCFEFESATQRPIDRQRYDENEDLSDVEEIVSVRGFSLEEKLRSQLYQGDFVHAMEGKDFNYEYVQREALRVPLIFREKDGLGIKMPDPDFTVRDVKLLVGSRRLVDVMDVNTQKGTEMSMSQFVRYYETPEAQRDKLYNVISLEFSHTKLEHLVKRPTVVDLVDWVDNMWPQHLKEKQTEATNAIAEMKYPKVKKYCLMSVKGCFTDFHIDFGGTSVWYHVFRGGKIFWLIPPTLHNLALYEEWVLSGKQSDIFLGDRVERCQRIELKQGYTFFIPSGWIHAVYTPVDSLVFGGNILHSFNVPMQLRIYEIEDRTRVQPKFRYPFYYEMCWYVLERYVYCVTQRSHLTQEYQRESMLIDAPRKPSIDGFSSDSWLEMEEEACDQQPQEEEEKDEEGEGRDRAPKPPTDGSTSPTSTPSEDQEALGKKPKAPALRFLKRTLSNESEESVKSTTLAVDYPKTPTGSPATEVSAKWTHLTEFELKGLKALVEKLESLPENKKCVPEGIEDPQALLEGVKNVLKEHADDDPSLAITGVPVVTWPKKTPKNRAVGRPKGKLGPASAVKLAANRTTAGARRRRTRCRKCEACLRTECGECHFCKDMKKFGGPGRMKQSCIMRQCIAPVLPHTAVCLVCGEAGKEDTVEEEEGKFNLMLMECSICNEIIHPGCLKIKESEGVVNDELPNCWECPKCNHAGKTGKQKRGPGFKYASNLPGSLLKEQKMNRDNKEGQEPAKRRSECEEAPRRRSDEHSKKVPPDGLLRRKSDDVHLRKKRKYEKPQELSGRKRASSLQTSPGSSSHLSPRPPLGSSLSPWWRSSLTYFQQQLKPGKEDKLFRKKRRSWKNAEDRMALANKPLRRFKQEPEDELPEAPPKTRESDHSRSSSPTAGPSTEGAEGPEEKKKVKMRRKRRLPNKELSRELSKELNHEIQRTENSLANENQQPIKSEPESEGEEPKRPPGICERPHRFSKGLNGTPRELRHQLGPSLRSPPRVISRPPPSVSPPKCIQMERHVIRPPPISPPPDSLPLDDGAAHVMHREVWMAVFSYLSHQDLCVCMRVCRTWNRWCCDKRLWTRIDLNHCKSITPLMLSGIIRRQPVSLDLSWTNISKKQLSWLINRLPGLRDLVLSGCSWIAVSALCSSSCPLLRTLDVQWVEGLKDAQMRDLLSPPTDNRPGQMDNRSKLRNIVELRLAGLDITDASLRLIIRHMPLLSKLHLSYCNHVTDQSINLLTAVGTTTRDSLTEINLSDCNKVTDQCLSFFKRCGNICHIDLRYCKQVTKEGCEQFIAEMSVSVQFGQVEEKLLQKLS",,binds,binds,binds
"RYBP (endogenous) (protein, UniProt Q8N488 1-228) MTMGDKKSPTRPKRQAKPAADEGFWDCSVCTFRNSAEAFKCSICDVRKGTSTRKPRINSQLVAQQVAQQYATPPPPKKEKKEKVEKQDKEKPEKDKEISPSVTKKNTNKKTKPKSDILKDPPSEANSIQSANATTKTSETNHTSRPRLKNVDRSTAQQLAVTVGNVTVIITDFKEKTRSSSTSSSTVTSSAGSEQQNQSSSGSESTDKGSSRSSTPKGDMSAVNDESF",,,,binds
